The supplement of paper PMC12819154, “High-throughput peptide-centric local stability assay extends protein–ligand identification to membrane proteins, tissues and bacteria” (Nature Structural & Molecular Biology, 2025)
This is one part of the list. Small differences around the control level are noise.

Amino acid sequences for entries named in this document (tags omitted). A change or cut given only in a name is not applied to a line headed by its entry.
UniProt P76104: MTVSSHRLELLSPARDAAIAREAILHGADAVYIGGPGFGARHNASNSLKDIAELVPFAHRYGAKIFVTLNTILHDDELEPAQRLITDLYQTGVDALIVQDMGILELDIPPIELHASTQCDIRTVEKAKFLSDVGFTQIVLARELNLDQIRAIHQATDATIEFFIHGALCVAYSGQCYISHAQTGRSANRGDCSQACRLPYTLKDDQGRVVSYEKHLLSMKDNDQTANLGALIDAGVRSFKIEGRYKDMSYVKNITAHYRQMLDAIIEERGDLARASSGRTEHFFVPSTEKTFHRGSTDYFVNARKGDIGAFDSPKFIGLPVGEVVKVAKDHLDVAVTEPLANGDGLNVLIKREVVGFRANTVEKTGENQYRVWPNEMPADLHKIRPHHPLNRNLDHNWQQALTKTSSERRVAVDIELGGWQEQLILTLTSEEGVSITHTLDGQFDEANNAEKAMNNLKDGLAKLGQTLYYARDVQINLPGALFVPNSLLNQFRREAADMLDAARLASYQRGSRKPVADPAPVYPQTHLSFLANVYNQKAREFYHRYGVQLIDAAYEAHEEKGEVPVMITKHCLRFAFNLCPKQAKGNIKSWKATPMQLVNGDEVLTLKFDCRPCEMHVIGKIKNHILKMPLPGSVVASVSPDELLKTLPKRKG
UniProt P76632: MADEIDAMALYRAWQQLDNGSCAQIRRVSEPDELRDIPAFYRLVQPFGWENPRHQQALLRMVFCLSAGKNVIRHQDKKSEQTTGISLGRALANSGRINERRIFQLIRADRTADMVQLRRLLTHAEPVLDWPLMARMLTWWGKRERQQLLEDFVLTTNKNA
UniProt P76445: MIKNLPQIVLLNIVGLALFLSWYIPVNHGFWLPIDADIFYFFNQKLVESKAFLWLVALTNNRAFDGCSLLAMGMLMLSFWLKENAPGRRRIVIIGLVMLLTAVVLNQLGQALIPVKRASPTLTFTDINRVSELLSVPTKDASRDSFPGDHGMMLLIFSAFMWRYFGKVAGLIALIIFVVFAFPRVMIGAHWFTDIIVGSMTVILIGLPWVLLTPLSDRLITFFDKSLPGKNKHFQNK
UniProt P77187: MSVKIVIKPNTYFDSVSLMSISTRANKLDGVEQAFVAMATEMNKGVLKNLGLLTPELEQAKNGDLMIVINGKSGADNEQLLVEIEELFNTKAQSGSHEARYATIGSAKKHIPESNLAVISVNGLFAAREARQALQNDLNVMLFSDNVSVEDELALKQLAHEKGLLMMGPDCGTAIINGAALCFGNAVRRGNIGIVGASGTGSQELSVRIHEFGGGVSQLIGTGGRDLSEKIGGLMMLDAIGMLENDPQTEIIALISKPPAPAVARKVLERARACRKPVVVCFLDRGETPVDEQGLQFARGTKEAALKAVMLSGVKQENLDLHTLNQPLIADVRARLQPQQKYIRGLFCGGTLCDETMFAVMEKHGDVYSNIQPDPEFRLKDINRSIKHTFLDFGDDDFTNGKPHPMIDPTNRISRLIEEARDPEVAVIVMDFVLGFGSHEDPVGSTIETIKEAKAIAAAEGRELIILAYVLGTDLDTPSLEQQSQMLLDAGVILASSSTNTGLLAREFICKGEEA
UniProt P76419: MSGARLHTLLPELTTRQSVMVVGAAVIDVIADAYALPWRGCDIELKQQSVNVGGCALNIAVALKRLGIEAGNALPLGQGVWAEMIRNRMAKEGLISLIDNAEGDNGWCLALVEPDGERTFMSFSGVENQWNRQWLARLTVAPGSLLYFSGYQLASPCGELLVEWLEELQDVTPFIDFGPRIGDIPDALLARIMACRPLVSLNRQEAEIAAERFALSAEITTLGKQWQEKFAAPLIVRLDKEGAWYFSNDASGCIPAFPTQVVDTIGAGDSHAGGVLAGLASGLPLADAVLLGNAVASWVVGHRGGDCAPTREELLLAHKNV
UniProt P76053: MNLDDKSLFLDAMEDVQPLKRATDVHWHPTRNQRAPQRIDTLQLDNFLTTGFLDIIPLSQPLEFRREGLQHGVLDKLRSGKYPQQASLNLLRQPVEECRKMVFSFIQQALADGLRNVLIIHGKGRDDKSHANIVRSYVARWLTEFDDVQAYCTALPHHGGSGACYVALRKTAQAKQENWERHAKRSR
UniProt P76190: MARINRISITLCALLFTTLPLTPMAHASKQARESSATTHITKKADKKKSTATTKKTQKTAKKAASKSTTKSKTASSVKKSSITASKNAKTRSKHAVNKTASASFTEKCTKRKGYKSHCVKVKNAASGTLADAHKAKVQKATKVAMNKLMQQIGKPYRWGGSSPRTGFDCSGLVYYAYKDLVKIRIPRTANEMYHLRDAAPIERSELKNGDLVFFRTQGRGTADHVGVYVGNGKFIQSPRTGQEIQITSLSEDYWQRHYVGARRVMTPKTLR
UniProt P75931: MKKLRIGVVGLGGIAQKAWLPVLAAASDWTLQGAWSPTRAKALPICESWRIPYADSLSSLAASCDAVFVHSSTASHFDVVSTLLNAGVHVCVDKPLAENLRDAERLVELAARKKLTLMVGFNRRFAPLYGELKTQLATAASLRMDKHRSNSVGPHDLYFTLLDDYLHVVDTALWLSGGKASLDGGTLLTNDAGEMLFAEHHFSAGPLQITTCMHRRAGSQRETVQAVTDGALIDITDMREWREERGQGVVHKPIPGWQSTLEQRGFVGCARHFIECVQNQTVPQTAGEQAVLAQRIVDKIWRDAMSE
UniProt P76182: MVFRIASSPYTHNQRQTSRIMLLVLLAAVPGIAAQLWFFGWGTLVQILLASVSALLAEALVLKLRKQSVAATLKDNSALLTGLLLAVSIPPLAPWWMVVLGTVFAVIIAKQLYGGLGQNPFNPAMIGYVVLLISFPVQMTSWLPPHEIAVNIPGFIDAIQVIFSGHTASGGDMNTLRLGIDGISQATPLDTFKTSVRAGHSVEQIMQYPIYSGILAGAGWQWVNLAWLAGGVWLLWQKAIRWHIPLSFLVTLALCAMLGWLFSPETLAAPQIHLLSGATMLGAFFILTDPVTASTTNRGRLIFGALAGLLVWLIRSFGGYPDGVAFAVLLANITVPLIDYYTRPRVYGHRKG
UniProt P76280: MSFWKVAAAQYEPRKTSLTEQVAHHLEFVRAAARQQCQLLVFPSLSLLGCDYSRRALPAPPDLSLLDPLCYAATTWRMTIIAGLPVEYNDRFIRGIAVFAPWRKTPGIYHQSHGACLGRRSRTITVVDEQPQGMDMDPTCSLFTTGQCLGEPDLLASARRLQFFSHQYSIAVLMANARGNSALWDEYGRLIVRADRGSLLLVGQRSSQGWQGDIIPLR
UniProt P77544: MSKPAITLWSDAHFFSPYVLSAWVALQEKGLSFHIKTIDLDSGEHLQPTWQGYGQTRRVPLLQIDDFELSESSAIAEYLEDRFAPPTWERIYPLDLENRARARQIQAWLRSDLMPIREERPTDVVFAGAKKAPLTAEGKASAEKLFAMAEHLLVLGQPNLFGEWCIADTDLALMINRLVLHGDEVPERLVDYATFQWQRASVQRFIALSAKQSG
UniProt P76113: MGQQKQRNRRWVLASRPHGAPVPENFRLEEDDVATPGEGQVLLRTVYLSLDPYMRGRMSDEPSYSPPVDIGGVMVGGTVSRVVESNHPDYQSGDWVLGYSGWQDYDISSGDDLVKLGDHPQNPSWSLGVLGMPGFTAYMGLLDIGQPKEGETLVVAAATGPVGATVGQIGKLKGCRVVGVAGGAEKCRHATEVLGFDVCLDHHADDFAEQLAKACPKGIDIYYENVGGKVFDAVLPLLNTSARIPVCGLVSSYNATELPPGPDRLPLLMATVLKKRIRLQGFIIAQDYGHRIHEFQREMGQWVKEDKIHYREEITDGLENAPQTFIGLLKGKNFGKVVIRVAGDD
UniProt P75990: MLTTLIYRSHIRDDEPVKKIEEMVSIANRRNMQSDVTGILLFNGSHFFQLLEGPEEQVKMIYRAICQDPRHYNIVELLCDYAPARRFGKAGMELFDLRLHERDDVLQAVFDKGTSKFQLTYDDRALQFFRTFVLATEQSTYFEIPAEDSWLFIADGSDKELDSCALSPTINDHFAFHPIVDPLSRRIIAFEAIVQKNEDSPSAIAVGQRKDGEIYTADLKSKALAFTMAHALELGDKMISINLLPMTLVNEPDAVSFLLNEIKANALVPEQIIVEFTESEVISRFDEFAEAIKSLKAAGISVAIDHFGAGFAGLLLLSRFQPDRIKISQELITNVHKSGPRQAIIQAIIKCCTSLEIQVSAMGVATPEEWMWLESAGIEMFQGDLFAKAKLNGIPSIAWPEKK
UniProt P76270: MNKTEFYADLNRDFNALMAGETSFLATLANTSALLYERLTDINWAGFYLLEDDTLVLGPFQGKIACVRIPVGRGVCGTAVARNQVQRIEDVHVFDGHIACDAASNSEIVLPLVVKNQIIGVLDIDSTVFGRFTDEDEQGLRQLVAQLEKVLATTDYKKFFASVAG
UniProt P76004: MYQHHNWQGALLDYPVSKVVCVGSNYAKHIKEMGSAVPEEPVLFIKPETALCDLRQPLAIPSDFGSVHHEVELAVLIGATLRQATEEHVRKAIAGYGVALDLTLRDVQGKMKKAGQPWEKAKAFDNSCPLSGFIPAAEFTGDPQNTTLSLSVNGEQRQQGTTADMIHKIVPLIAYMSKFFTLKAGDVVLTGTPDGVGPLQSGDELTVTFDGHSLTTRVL
UniProt P77596: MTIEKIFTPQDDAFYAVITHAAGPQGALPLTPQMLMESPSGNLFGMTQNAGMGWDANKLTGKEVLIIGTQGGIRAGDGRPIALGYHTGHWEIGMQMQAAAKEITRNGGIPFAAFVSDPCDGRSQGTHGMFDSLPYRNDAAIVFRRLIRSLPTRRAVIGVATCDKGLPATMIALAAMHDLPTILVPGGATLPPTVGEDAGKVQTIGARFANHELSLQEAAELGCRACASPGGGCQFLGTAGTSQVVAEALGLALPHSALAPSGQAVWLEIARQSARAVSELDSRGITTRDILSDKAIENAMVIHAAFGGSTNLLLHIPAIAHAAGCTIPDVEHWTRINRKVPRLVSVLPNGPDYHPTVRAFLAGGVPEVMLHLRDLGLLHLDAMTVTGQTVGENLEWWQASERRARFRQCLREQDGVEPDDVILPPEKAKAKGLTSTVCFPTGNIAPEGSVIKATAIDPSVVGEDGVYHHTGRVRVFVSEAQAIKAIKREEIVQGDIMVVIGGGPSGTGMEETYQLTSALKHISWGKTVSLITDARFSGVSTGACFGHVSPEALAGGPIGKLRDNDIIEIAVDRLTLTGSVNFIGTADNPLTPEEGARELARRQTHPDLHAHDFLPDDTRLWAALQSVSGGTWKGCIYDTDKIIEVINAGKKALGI
UniProt P77569: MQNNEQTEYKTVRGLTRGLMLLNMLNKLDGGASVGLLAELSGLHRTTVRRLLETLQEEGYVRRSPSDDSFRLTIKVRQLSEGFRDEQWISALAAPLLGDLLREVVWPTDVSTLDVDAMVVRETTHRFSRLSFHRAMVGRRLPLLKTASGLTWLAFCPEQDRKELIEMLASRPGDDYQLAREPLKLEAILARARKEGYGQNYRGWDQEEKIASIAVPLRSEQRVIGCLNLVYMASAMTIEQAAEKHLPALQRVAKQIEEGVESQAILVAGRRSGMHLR
UniProt P77439: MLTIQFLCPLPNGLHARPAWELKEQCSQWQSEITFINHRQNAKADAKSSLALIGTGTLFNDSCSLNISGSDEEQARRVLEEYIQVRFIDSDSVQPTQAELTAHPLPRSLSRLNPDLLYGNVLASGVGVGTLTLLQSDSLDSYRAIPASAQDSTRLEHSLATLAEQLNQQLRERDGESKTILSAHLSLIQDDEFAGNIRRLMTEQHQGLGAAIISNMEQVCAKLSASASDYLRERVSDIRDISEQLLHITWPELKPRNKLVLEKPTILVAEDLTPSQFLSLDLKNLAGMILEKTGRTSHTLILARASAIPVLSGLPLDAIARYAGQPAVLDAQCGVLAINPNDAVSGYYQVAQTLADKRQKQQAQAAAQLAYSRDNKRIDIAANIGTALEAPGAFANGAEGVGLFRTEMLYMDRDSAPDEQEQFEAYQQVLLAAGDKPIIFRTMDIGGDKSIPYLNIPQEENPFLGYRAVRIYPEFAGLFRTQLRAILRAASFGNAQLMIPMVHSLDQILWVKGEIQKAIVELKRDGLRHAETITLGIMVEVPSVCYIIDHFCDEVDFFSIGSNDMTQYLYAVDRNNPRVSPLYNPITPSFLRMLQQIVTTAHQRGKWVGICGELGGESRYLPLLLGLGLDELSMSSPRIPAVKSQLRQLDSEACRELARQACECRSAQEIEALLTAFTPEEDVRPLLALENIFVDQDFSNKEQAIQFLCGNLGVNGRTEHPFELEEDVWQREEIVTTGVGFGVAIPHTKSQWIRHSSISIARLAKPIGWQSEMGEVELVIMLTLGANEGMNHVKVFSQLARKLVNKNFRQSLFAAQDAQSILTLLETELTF
UniProt P76510: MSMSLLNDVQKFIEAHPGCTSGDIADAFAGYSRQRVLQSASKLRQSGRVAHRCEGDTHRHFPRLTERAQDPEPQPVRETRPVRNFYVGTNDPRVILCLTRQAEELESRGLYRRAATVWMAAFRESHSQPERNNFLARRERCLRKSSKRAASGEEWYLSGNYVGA
UniProt P76406: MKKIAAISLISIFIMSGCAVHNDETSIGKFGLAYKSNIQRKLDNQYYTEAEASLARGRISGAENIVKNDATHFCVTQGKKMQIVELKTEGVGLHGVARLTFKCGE

Compound: CC1(C)S[C@@H]2[C@H](NC(=O)[C@H](N)c3ccccc3)C(=O)N2[C@H]1C(=O)O [ampicillin]
Assay: log2 fold change of tryptic peptide abundance, ligand vs vehicle (limited proteolysis) (log2 ratio); higher = more trypsin-susceptible (destabilized)
Details: ligand concentration: 10 uM; sample: E. coli crude lysate

Target | log2 fold change
UniProt P76545 (peptide sequence: YLDFAEDREHAESVATK, peptide start residue: 7) | -0.423
UniProt P76104 (peptide sequence: GSTDYFVNAR, peptide start residue: 295) | -0.136
UniProt P76632 (peptide sequence: SEQTTGISLGR, peptide start residue: 79) | 0.0877
UniProt P76296 (peptide sequence: NSDDDTDVNVIK, peptide start residue: 39) | 0.353
UniProt P76445 (peptide sequence: VSELLSVPTK, peptide start residue: 130) | -0.121
UniProt P77187 (peptide sequence: HGDVYSNIQPDPEFR, peptide start residue: 364) | -0.286
UniProt P75915 (peptide sequence: VLGSLYYR, peptide start residue: 10) | -0.162
UniProt P76156 (peptide sequence: NDLNYQWFYSELKR, peptide start residue: 16) | -0.244
UniProt P76237 (peptide sequence: ENDTLHDAYK, peptide start residue: 470) | -1.02
UniProt P76419 (peptide sequence: LHTLLPELTTR, peptide start residue: 6) | -0.347
UniProt P76053 (peptide sequence: YPQQASLNLLR, peptide start residue: 82) | -0.659
UniProt P76190 (peptide sequence: ESSATTHITK, peptide start residue: 33) | -0.0729
UniProt P75992 (peptide sequence: DLIDSIIR, peptide start residue: 51) | -0.0851
UniProt P76254 (peptide sequence: FLHQQVK, peptide start residue: 86) | 0.174
UniProt P75931 (peptide sequence: FAPLYGELK, peptide start residue: 125) | 0.236
UniProt P76182 (peptide sequence: IASSPYTHNQR, peptide start residue: 5) | -0.391
UniProt P76280 (peptide sequence: TSLTEQVAHHLEFVR, peptide start residue: 16) | 0.264
UniProt P75988 (peptide sequence: VSTTKNPAK, peptide start residue: 65) | 0.236
UniProt P77544 (peptide sequence: KAPLTAEGK, peptide start residue: 131) | 0.186

Looked up above:
Entry of UniProt P76632 (peptide sequence: SEQTTGISLGR, peptide start residue: 79) under log2 fold change: 0.0877
Entry of UniProt P76445 (peptide sequence: VSELLSVPTK, peptide start residue: 130) under log2 fold change: -0.121
Entry of UniProt P76545 (peptide sequence: YLDFAEDREHAESVATK, peptide start residue: 7) under log2 fold change: -0.423

Next part.

Target | log2 fold change
UniProt P76113 (peptide sequence: LQGFIIAQDYGHR, peptide start residue: 279) | -0.491
UniProt P76172 (peptide sequence: IQSDISQR, peptide start residue: 29) | 0.0108
UniProt P75990 (peptide sequence: KDGEIYTADLK, peptide start residue: 210) | 0.872
UniProt P77171 (peptide sequence: HLHTFVAVAQQGTLGR, peptide start residue: 15) | 0.121
UniProt P77202 (peptide sequence: TLNIIMGNK, peptide start residue: 240) | -0.0802
UniProt P76270 (peptide sequence: TEFYADLNR, peptide start residue: 4) | 0.13
UniProt P76004 (peptide sequence: KAGQPWEK, peptide start residue: 113) | -0.136
UniProt P76633 (peptide sequence: VLDHIPANR, peptide start residue: 217) | -0.427
UniProt P75874 (peptide sequence: CPAIEIPR, peptide start residue: 125) | -0.415
UniProt P77596 (peptide sequence: FANHELSLQEAAELGCR, peptide start residue: 208) | -0.121
UniProt P77569 (peptide sequence: QIEEGVESQAILVAGRR, peptide start residue: 255) | 0.957
UniProt P76594 (peptide sequence: SEVQGVMLYLR, peptide start residue: 533) | -0.239
UniProt P77439 (peptide sequence: MLQQIVTTAHQR, peptide start residue: 593) | 0.43
UniProt P77390 (peptide sequence: VKRSENK, peptide start residue: 10) | -0.428
UniProt P76510 (peptide sequence: VILCLTR, peptide start residue: 94) | -0.0662
UniProt P76116 (peptide sequence: TFDTPTHPNSLALSADGK, peptide start residue: 309) | -0.884
UniProt P76073 (peptide sequence: WFPAQLPEVR, peptide start residue: 9) | -0.946
UniProt P76406 (peptide sequence: MQIVELK, peptide start residue: 81) | 1.71
